No constants are given. Whether binding was seen depends on the method and setting. In cells and extracts the contact can be indirect. Some binding calls cover weakened binding; strength is not graded here. For some of these results: Tags and fused reporters may be left off the sequences shown.
How the values were obtained:
Assay in all cases: co-IP
GFP-NINJ2-TM1 = GFP-NINJ2-TM1 (UniProt Q9NZG7)
GFP-NINJ2-TM2 = GFP-NINJ2-TM2 (UniProt Q9NZG7)
GFP-NINJ2-aa63-142 = GFP-NINJ2-aa63-142 (UniProt Q9NZG7)
GFP-NINJ2-aa1-62 = GFP-NINJ2-aa1-62 (UniProt Q9NZG7)
[1] = target: T1, GFP-tagged NINJ2 (pEGFP-N1-NINJ2), full-length Ninjurin2 (UniProt Q9NZG7)
T1 sequence: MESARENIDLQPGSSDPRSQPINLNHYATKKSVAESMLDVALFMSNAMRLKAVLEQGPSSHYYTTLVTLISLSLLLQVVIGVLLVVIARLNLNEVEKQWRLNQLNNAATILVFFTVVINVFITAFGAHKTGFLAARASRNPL

Flag-Ninjurin2 = target: T2, Flag-Ninjurin2 (UniProt Q9NZG7)
T2 sequence: T1 sequence

[2] = target: Flag-tagged PDGFR-β (p3×Flag-CMV-10-PDGFRB) (UniProt P09619)

Flag-tagged PDGFR-β (p3×Flag-CMV-10-PDGFRB) (from UniProt P09619 33-1106) (receptor)
binding (GFP-NINJ2-TM1): binds | binding (GFP-NINJ2-TM2): binds | binding (GFP-NINJ2-aa63-142): binds | binding (GFP-NINJ2-aa1-62): no binding | binding [1]: binds

GFP-PDGFRB-TyrKc (from UniProt P09619 600-958) (domain or fragment)
binding (Flag-Ninjurin2): binds

B1: GFP-tagged NINJ2 (pEGFP-N1-NINJ2), full-length Ninjurin2 (protein, UniProt Q9NZG7 1-142)
chain: T1 sequence
binding [2]: binds

Reference: doi:10.1101/2025.05.27.656052
